Whole data set: some 33,000 sequences, median “E-score (-0.5 to 0.5)” near -0.016, cut for the highest 2% near 0.3. Some of the results follow.
target: T1, Yer184c (UniProt P39961); assay: PBM E-score (8-mer binding enrichment) (E-score (-0.5 to 0.5)); higher = stronger / more preferred TF binding; conditions: protein concentration: 100 nM; construct: GST-full length
T1 sequence: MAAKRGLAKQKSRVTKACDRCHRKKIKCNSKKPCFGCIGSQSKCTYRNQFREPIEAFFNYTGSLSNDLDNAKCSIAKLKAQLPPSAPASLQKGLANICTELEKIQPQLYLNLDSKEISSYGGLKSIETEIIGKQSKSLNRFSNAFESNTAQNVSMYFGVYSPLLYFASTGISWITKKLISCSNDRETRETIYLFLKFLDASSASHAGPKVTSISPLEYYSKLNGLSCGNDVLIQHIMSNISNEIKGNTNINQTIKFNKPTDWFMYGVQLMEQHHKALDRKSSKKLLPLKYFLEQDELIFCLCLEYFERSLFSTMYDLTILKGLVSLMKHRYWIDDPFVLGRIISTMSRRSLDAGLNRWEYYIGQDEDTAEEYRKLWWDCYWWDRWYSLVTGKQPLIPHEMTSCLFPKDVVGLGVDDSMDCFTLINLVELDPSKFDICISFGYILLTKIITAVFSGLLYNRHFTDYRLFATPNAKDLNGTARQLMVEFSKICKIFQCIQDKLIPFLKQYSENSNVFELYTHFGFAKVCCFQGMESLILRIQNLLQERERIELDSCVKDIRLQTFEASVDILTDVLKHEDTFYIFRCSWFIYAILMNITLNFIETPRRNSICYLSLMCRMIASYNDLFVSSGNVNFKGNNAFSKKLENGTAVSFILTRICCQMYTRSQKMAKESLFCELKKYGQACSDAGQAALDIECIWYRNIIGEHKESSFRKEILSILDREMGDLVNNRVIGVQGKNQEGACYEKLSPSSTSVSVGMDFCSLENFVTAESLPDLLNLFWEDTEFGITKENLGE
Outline: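 GST-tagged yeast TFs (full-length or DNA-binding domain) were made by PURExpress in vitro transcription/translation and applied at about 100-200 nM to universal all-10-mer Agilent arrays. The arrays were made double-stranded by primer extension, on fresh or once-stripped slides. Bound protein was detected with fluorescent anti-GST, and scans were normalised with masliner. Each ungapped eight-base word, pooled with its reverse complement, received an E-score (modified Wilcoxon-Mann-Whitney statistic) from the Universal PBM Analysis Suite.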

| Sequence | PBM E-score |
| --- | --- |
| TAGCGCAA | 0.0359 |
| GTAGCGCA | -0.147 |
| GCGTATTA | -0.0377 |
| ACGGTCTC | -0.0951 |
| AGTACGCC | -0.121 |
| ATTAGTCG | 0.0138 |
| GGGTAGTA | -0.154 |
| CACATCAG | -0.19 |
| CGGCTTAG | 0.213 |
| ACTCCCTA | -0.154 |
| CCTAACAC | 0.152 |
| CACTAGTA | -0.0824 |
| GACTTACA | -0.0474 |
| GATGCCTA | -0.109 |
| GCGGTGCC | -0.0485 |
| ACCAGGCC | 0.0818 |
| TAAATCGA | 0.135 |
| CAGTGGGG | -0.329 |
| GAGGAAAC | 0.0245 |
| CCCGCTAA | -0.132 |
| AACAGATA | 0.0633 |
| ACCTATAA | 0.0255 |
| CTGCTGTC | -0.0516 |
| ATCGAGTC | -0.039 |
| CACCACAC | -0.145 |

| Sequence | PBM E-score |
| --- | --- |
| CGTGACAG | 0.0369 |
| ATCCGACA | 0.162 |
| AGCGCGGG | 0.0344 |
| CCGAAGCA | 0.204 |
| CAACATTG | -0.0313 |
| CATGTAGA | -0.00013 |
| ATCTGCAC | -0.0268 |
| GCTGGATA | 0.0407 |
| GACTTTCC | -0.0958 |
| AGACGATG | 0.0198 |
| GATGCCAC | -0.128 |
| ACCTTAAC | 0.00941 |
| AGTTTCGC | -0.0623 |
| GGTGTATA | -0.0735 |
| AACCGTCC | -0.0788 |
| ATTAAGAG | 0.0705 |
| ACCAGCCC | 0.0368 |
| CGATTGAC | 0.134 |
| ATACGGGA | -0.0103 |
| ACCCGACA | 0.0124 |
| CCTATATA | 0.026 |
| ACGCCAGA | -0.132 |
| CAAGCTAA | -0.157 |
| AGACTCCG | -0.0142 |
| CGCGGTGC | -0.126 |

| Sequence | PBM E-score |
| --- | --- |
| ATCCACAT | 0.0775 |
| AGGGGAGG | -0.23 |
| AAACAGTG | -0.0394 |
| CAACTTCG | 0.0579 |
| CTTCCTGA | 0.107 |
| AATATTTG | 0.149 |
| AGCGTCCA | -0.0821 |
| GCGTCCTA | -0.236 |
| CCCGGCCG | 0.371 |
| CATACATC | -0.0101 |
| GGGTACCC | -0.184 |
| CAAAGCCA | -0.177 |
| AATACTGG | -0.0692 |
| CCCAGCAC | -0.221 |
| GATTGCGA | 0.196 |
| CATATCAG | -0.147 |
| CGGTTGAC | 0.113 |
| AGATTCTG | -0.0548 |
| CGTAAAGA | 0.0954 |
| CAGACCCA | -0.131 |
| CTGCTAGA | -0.0455 |
| CGAGATCA | -0.0369 |
| CCACTCCA | -0.188 |
| CATTGCCA | 0.0974 |
| TCAAGCAA | -0.0759 |

Not a retest: an excerpt of the list.

| Sequence | PBM E-score |
| --- | --- |
| CTGCTGTC | -0.0516 |
| ATCGAGTC | -0.039 |
| CACCACAC | -0.145 |
| CGTGACAG | 0.0369 |
| ATCCGACA | 0.162 |
| AGCGCGGG | 0.0344 |
| CCGAAGCA | 0.204 |
| CAACATTG | -0.0313 |
| CATGTAGA | -0.00013 |
| ATCTGCAC | -0.0268 |
| GCTGGATA | 0.0407 |
| GACTTTCC | -0.0958 |
| AGACGATG | 0.0198 |
| GATGCCAC | -0.128 |
| ACCTTAAC | 0.00941 |
| AGTTTCGC | -0.0623 |
| GGTGTATA | -0.0735 |
| AACCGTCC | -0.0788 |
| ATTAAGAG | 0.0705 |
| ACCAGCCC | 0.0368 |
| CGATTGAC | 0.134 |
| ATACGGGA | -0.0103 |
| ACCCGACA | 0.0124 |
| CCTATATA | 0.026 |
| ACGCCAGA | -0.132 |
| CAAGCTAA | -0.157 |
| AGACTCCG | -0.0142 |
| CGCGGTGC | -0.126 |
| ATCCACAT | 0.0775 |
| AGGGGAGG | -0.23 |
| AAACAGTG | -0.0394 |
| CAACTTCG | 0.0579 |
| CTTCCTGA | 0.107 |
| AATATTTG | 0.149 |
| AGCGTCCA | -0.0821 |
| GCGTCCTA | -0.236 |
| CCCGGCCG | 0.371 |
| CATACATC | -0.0101 |
| GGGTACCC | -0.184 |
| CAAAGCCA | -0.177 |
| AATACTGG | -0.0692 |
| CCCAGCAC | -0.221 |
| GATTGCGA | 0.196 |
| CATATCAG | -0.147 |
| CGGTTGAC | 0.113 |
| AGATTCTG | -0.0548 |
| CGTAAAGA | 0.0954 |
| CAGACCCA | -0.131 |
| CTGCTAGA | -0.0455 |
| CGAGATCA | -0.0369 |
| CCACTCCA | -0.188 |
| CATTGCCA | 0.0974 |

Remaining list, next part:

| Sequence | PBM E-score |
| --- | --- |
| AGCCGACG | 0.12 |
| CTTCGGGA | 0.171 |
| CCGCGTGA | 0.141 |
| AGTACCTG | -0.0935 |
| CCATTCTA | -0.0184 |
| ACTTCGTG | -0.0816 |
| CGAAAATC | 0.254 |
| TATCGTCA | -0.1 |
| ACGCGGCT | 0.0493 |
| AGCTACAT | -0.175 |
| GATCCGCA | 0.0531 |
| CCCGCATC | -0.084 |
| CGAACGAC | 0.109 |
| CCTGACAA | -0.115 |
| AGGCTGTC | -0.108 |
| TACGGCAA | 0.158 |
| CCAGGGTC | -0.283 |
| CCATAGTC | -0.202 |
| GAATGGTC | -0.0531 |
| ACAATGGT | -0.24 |
| AAGCGATT | -0.022 |
| AACCCCAA | -0.102 |
| ATTCCAGG | -0.161 |
| ACCTGTAC | -0.0391 |
| GATAAGTA | 0.168 |

| Sequence | PBM E-score |
| --- | --- |
| CCCGTCCA | -0.0786 |
| AGACCTCG | 0.0523 |
| CTATAAGC | -0.0483 |
| AAGAAAAT | 0.265 |
| CAGGTACG | -0.106 |
| CGCAATCA | 0.172 |
| CATGCGGG | -0.0764 |
| ATGGCTAC | -0.083 |
| CAAGCGTC | -0.0502 |
| AGGCGGGA | -0.104 |
| GAGACATC | -0.0567 |
| GACTACTA | 0.096 |
| GTAACCAA | 0.12 |
| ACTTTCAA | 0.155 |
| GATAAGAC | -0.0845 |
| GCCTGCGC | -0.158 |
| ACACCGGA | 0.246 |
| GACGTAAA | 0.0285 |
| CAGGTGTA | -0.273 |
| GCGCGGAA | 0.138 |
| GCTGCGTA | -0.12 |
| GTCCAATA | 0.0552 |
| GAAGGGCC | -0.164 |
| GAGACGCA | 0.0668 |
| CAGTGAAC | -0.0206 |

| Sequence | PBM E-score |
| --- | --- |
| GGACACAA | 0.107 |
| CAGTCGCG | -0.189 |
| CATCATAG | -0.0492 |
| CCTACCAC | -0.152 |
| ATAGCGGG | -0.14 |
| ACGCAGTA | -0.15 |
| GGATGTCA | 0.14 |
| CTCTGCTA | -0.0157 |
| CCGTGAGA | -0.0337 |
| CACGTTTC | -0.0963 |
| ATCACTGG | -0.147 |
| ATGCTCAA | -0.198 |
| ATCTTGCG | 0.059 |
| ACTTAAAT | 0.15 |
| ACTGTAAG | 0.0451 |
| TATAGTGA | 0.0268 |
| TCGTAGCA | -0.00446 |
| GTGTTAAC | 0.133 |
| CGCCCACC | -0.202 |
| GGAGAGAC | 0.0204 |
| AGCTTGTA | 0.105 |
| ATAAAGAT | 0.272 |
| ACTTAGAC | 0.147 |
| GCCCTACA | -0.132 |
| ATTCCGAA | 0.388 |

| Sequence | PBM E-score |
| --- | --- |
| CCCTATCG | -0.254 |
| ATGGGAAC | -0.0715 |
| ACTTAGTC | -0.109 |
| AGAAAGGC | -0.0641 |
| CGTATAGA | -0.0191 |
| TCTAGCAA | 0.0828 |
| CGTCCTTC | -0.0711 |
| GCATCTAA | 0.0891 |
| CACGGAAC | 0.349 |
| GAGTGTTA | 0.126 |
| ACTTTGAT | 0.0275 |
| AAAGTACA | 0.0108 |
| ACATCCAC | -0.0312 |
| AGCCGTCC | 0.059 |
| AAAAATAG | 0.241 |
| AATGGTAC | -0.00404 |
| GGTGCTGA | 0.00679 |
| AGCTCCTA | -0.233 |
| CTATGCGC | -0.104 |
| AGTAAGCA | 0.0578 |
| CAACCTTC | -0.155 |
| GCTTTTCC | 0.109 |
